Data as given in PMC5642495, “Characterization of a novel androgen receptor (AR) coregulator RIPK1 and related chemicals that suppress AR-mediated prostate cancer growth via peptide and chemical screening” (Oncotarget, 2017).
These are yes or no findings as the source states them, for the method shown. For part of these data: Binding seen in cells or lysates may run through a third protein. Some results given as binding are weak or reduced against the parent protein; the word gives no strength. Values belong to the molecule of their own block, whether it stands above or below them.

The chains behind the UniProt entries cited, without tags or fusion partners.
UniProt P10275: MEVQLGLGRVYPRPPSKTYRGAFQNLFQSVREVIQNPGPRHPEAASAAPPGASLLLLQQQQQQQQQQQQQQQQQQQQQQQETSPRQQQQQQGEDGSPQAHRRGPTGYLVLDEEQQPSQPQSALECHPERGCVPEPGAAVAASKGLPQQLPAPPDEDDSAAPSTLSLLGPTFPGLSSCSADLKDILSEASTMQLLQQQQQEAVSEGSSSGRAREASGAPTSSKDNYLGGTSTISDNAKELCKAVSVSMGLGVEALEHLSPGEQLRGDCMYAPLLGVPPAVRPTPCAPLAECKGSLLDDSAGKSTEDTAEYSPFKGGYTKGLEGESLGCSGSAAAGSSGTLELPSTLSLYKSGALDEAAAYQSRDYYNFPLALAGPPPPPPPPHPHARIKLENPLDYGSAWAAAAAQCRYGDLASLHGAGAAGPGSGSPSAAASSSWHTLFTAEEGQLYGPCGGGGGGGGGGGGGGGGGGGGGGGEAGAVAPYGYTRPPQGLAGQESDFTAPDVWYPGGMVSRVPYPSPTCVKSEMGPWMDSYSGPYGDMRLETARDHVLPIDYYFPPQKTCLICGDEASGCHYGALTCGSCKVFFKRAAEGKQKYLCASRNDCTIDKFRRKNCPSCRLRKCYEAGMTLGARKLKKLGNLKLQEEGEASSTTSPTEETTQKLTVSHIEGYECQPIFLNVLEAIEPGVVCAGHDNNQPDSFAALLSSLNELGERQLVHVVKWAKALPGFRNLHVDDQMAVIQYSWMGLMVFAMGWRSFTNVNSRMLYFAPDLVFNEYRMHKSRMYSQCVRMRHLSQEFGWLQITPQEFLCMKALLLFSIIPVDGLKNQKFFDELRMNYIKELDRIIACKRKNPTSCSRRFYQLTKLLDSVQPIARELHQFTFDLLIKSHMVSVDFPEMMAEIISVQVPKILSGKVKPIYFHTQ
UniProt Q13546: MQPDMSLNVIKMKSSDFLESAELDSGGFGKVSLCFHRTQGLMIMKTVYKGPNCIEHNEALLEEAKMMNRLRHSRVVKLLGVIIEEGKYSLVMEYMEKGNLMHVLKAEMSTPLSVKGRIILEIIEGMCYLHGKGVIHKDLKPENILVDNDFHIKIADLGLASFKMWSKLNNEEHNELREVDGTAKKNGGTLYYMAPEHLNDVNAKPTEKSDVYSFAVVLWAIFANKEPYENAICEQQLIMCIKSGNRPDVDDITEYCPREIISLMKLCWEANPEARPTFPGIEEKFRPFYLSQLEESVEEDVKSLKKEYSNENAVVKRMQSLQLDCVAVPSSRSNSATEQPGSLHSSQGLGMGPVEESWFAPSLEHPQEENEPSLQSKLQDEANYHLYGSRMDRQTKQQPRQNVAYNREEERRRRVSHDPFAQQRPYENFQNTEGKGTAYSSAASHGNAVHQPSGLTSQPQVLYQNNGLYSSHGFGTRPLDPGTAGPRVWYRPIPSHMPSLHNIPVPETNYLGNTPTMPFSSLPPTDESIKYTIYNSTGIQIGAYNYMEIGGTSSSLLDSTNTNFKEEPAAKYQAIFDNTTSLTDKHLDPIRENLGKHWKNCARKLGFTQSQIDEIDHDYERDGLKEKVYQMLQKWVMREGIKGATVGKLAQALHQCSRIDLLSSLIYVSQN

Key:
[1] = target: 3xFlag-AR (androgen receptor, co-IP) (human) (UniProt P10275); assay: co-IP; extracts of 293T cells overexpressing 3xFlag-RIPK1 and 3xFlag-AR, treated with 1 mM DHT (so in the source); IP with anti-AR (C19) or anti-RIPK1 antibody, normal rabbit serum as negative control; immunoblot for AR or RIPK1
[2] = target: full-length AR (GST pull-down assay) (human) (UniProt P10275); assay: pull-down; GST pull-down; which partner carried GST and the conditions are not told (refs 8, 16)
[3] = target: VP16-AR (wild-type androgen receptor, pCMX-VP16-AR) (human) (UniProt P10275); assay: two-hybrid; mammalian two-hybrid in PC-3 cells: 350 ng GAL4-DBD fusion, 350 ng VP16-AR, 300 ng pG5-Luc; ethanol, 10 nM DHT, or 0.01-10 µM HWC-489 or LHJ-647 for 16 h

binding [1]: binds
Molecule: 3xFlag-RIPK1 (receptor-interacting protein kinase 1) (from UniProt Q13546 1-671) (enzyme)

binding [2]: binds
Molecule: RIPK1 (as used in the GST pull-down assay) (from UniProt Q13546 1-671) (enzyme)

binding [3]: binds
Molecule: NTNAFSRLFYPS [#3-18 peptide (No. 12, positive control; GAL4-DBD-3-18)]
